The name of at least one read-out is uncertain.
Assay: Rat PK study, single i.g. dose
Assay type: in vivo, SD rat
Method: The pharmacokinetic (PK) profile of compounds following single i.g in SD rat obtained from […] Laboratory Animal Co., LTD of Shanghai was determined. Three female rats of weight around 220 g were used. Compounds were prepared at 1 mg/ml with the formulation of 10% DMSO+10% solutol HS15+80% (10% HPβCD in water). Blood samples (0.2 mL) were collected at 0 h (pre-dose) and 0.25, 0.5, 1, 2, 4, 8, 24 h time points after administration of compounds at the dose of 10 mg/kg. The collected blood samples were centrifuged without delay and the plasma was separated and transferred into tubes before storage at -70° C. prior to analysis. Aliquots of the plasma unknowns, blank and calibration standards were placed in 1.5 mL tubes and mixed with acetonitrile/methanol (1/1, v/v) containing IS. After vortexing for 5 min, each sample was centrifuged at 14000 rpm at 4° C. for 10 min. The supernatant were injected into the LC-MS/MS system. […] Eluates were analyzed using an API4000 Q-Trap mass spectrometer with a TurboIonSpray interface. Chromatographic separation was done with a mobile phase composed of water with 0.1% formic acid (solution A) and acetonitrile with 0.1% formic acid (solution B). The mobile phase was delivered at a flow rate of 0.6 mL/min, using a stepwise gradient elution program. […] Mass spectrometry data was acquired and analyzed using AB Sciex Analyst version 1.6.2 software. […]

| SMILES | oral bioavailability, rat PK profile compared to control compounds |
| --- | --- |
| C=CC(=O)N1C[C@H](C)N(c2nc(=O)n(-c3c(C4CC4)ncnc3C3CC3)c3nc(-c4c(N)cccc4F)c(Cl)cc23)C[C@H]1C [Compound 126] | significantly improved oral bioavailability |
| C=CC(=O)N1C[C@H](C)N(c2nc(=O)n(-c3c(C4CC4)ncnc3C3CC3)c3nc(-c4c(N)cccc4F)c(F)cc23)C[C@H]1C [Compound 44] | significantly improved oral bioavailability |

Source: patent publication US12110289B2, “Heterocyclic compounds, preparation methods and uses thereof” (InventisBio Co., Ltd., priority 2020, dated 2024)
